No constants are given. Whether binding was seen depends on the method and setting. One block for each binder: values may come before it.
What was measured:
[1] = biological target: T1, mouse GIPC1 GH2 domain (residues 258-333) (mouse), Q9Z0G0; experiment: AUC; sedimentation velocity of single proteins (GH2 at 30 μM, HCBD at 20 μM); 10 mM Tris pH 8.0, 150 mM NaCl, 1 mM TCEP; 4°C, 50,000 rpm; both purified; settings: remark: other sources report otherwise
T1 chain: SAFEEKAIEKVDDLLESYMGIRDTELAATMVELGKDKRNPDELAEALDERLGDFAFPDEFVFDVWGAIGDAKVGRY

[2] = biological target: mouse GIPC1 linker-GH2 (residues 217-333) (mouse) (UniProt Q9Z0G0); experiment: AUC; sedimentation velocity of single proteins (linker-GH2 at 38 μM and 200 μM, HCBD at 150 μM); 10 mM Tris pH 8.0, 500 mM NaCl, 1 mM TCEP; 4°C, 50,000 rpm; both purified

binding [1]: no binding (tested: 30 μM)
B1: mouse GIPC1 GH2 domain (residues 258-333), Q9Z0G0 258-333 (domain or fragment)
chain: T1 chain

binding [2]: no binding (tested: 200 μM)
B2: mouse GIPC1 linker-GH2 (residues 217-333) (domain or fragment, UniProt Q9Z0G0 217-333)
chain: AFDMISQRSAGGHPGSGPQLGTGRGTLRLRSRGPATVEDLPSAFEEKAIEKVDDLLESYMGIRDTELAATMVELGKDKRNPDELAEALDERLGDFAFPDEFVFDVWGAIGDAKVGRY
